Reference: paper PMC4423211 (2015)
Results are given in words; binding and its absence hold for the method and conditions named. For some assays here: Binding can be weak; no strength is given. Tags and fused reporters may be left off the sequences shown. Values belong to the substance of their own block, whether it stands above or below them.

Legend:
[1] = biological target: T1, IL1RAPL1-ECD-His6, wild type (mouse) (UniProt P59823); test: SPR; equilibrium; Biacore T200, 25 °C, 10 mM Hepes (pH 7.9), 150 mM NaCl, 0.05% Tween-20; IL1RAPL1-ECD-His6 amine-coupled on a CM5 chip (about 2,000 RU); PTPδ Ig1–Fn1 variants or mutants injected as analytes, 15.6 to 4,000 nM; both purified
T1 sequence: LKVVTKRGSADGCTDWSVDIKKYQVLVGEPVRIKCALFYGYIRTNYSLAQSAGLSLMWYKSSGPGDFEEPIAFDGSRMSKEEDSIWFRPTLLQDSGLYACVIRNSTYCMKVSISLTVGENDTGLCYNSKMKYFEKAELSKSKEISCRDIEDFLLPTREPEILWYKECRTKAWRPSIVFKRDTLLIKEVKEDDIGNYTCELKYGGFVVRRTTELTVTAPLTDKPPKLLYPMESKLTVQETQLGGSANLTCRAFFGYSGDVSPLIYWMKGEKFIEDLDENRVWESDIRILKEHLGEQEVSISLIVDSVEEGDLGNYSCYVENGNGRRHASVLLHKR

[2] = biological target: T2, IL-1RAcP-ECD-Fc, wild type (mouse) (UniProt Q61730); test: SPR; equilibrium; Biacore T200, 25 °C, 10 mM Hepes (pH 7.9), 150 mM NaCl, 0.05% Tween-20; IL-1RAcP-ECD-Fc captured (about 700 RU) by anti-Fc antibodies immobilised on a CM5 chip; PTPδ Ig1–Fn1 variants or mutants injected as analytes, 15.6 to 4,000 nM; both purified
T2 sequence: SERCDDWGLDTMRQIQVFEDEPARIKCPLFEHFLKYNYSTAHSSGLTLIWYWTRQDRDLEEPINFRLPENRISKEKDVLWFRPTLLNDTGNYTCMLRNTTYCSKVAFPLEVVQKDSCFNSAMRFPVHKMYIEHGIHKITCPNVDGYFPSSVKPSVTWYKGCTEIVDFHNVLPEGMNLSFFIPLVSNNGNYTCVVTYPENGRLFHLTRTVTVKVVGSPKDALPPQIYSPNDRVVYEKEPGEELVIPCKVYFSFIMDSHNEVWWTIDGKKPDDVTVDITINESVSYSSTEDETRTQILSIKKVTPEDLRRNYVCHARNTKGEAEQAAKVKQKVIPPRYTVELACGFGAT

[3] = biological target: T1, IL1RAPL1-ECD-His6, wild type (mouse); test: crystal structure; sitting drop vapour diffusion at 20 °C; the two proteins mixed at a molar ratio of 1:1 to about 6 g/l before crystallisation; both purified
[4] = biological target: T3, IL-1RAcP-ECD (His6-tagged, for crystallography) (mouse) (UniProt Q61730); test: as above
T3 sequence: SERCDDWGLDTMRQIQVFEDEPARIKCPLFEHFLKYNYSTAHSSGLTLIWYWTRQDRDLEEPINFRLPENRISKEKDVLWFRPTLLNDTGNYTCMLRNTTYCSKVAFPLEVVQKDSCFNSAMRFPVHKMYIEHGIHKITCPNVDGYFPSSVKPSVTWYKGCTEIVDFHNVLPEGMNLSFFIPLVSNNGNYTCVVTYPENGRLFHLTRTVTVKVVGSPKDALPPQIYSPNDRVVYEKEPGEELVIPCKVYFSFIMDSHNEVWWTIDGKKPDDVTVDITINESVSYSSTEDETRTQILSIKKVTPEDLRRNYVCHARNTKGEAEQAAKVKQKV

[5] = biological target: T2, IL-1RAcP-ECD-Fc, wild type (mouse); test: pull-down; purified IL-1RAcP-Fc or IL1RAPL1-Fc mixed with serially deleted PTPδ proteins at 1:1 molar ratio, immobilised on Protein G Sepharose beads, washed with PBS, eluted with SDS sample buffer, SDS-PAGE; both purified
[6] = biological target: T4, IL1RAPL1-Fc (C-terminally Fc-tagged IL1RAPL1-ECD) (mouse) (UniProt P59823); test: as above
T4 sequence: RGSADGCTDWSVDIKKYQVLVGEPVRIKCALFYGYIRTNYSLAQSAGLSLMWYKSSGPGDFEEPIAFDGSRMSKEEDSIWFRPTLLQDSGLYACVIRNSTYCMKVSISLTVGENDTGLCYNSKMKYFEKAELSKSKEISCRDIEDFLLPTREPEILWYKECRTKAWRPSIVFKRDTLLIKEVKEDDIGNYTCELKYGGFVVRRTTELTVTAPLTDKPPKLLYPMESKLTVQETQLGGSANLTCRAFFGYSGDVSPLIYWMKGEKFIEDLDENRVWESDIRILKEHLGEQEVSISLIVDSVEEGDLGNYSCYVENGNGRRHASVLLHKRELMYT

Substance: PTPδ Ig1–Fn1 splicing variant meA3/− (mouse) (domain or fragment)
- binding [1]: no binding (tested: analyte 15.6 to 4,000 nM)

Substance: PTPδ Ig1–Fn1 splicing variant meA6/− (mouse) (domain or fragment)
- binding [1]: no binding (tested: analyte 15.6 to 4,000 nM)

Substance: PTPδ Ig1–Fn1 splicing variant meA3/+ (mouse) (domain or fragment)
- binding [1]: no binding (tested: analyte 15.6 to 4,000 nM)

Substance: PTPδ Ig1–Fn1 Y273A (mouse) (domain or fragment)
- binding [2]: no binding (tested: analyte 15.6 to 4,000 nM)

Substance: PTPδ Ig1–Fn1 splicing variant −/+ (no meA, with meB) (mouse) (domain or fragment)
- binding [1]: no binding (tested: analyte 15.6 to 4,000 nM)

- binding [3]: binds
Substance: PTPδ-ECD (full-length extracellular domain) (mouse) (domain or fragment)

- binding [4]: binds
- binding [5]: binds
Substance: PTPδ Ig1–Fn2 (mouse) (domain or fragment)

- binding [3]: binds
- binding [6]: binds
- binding [5]: no binding
Substance: PTPδ Ig1–Ig2 (mouse) (domain or fragment)
